Results published in paper PMC11883276.
Results are given in words; binding and its absence hold for the method and conditions named. A result given as binding can be weak or reduced; the word gives no strength.

Amino acid sequences for entries named in this document (tags omitted). A change or cut given only in a name is not applied to a line headed by its entry. Residues count along the entry.
UniProt P12830, residues 155-709: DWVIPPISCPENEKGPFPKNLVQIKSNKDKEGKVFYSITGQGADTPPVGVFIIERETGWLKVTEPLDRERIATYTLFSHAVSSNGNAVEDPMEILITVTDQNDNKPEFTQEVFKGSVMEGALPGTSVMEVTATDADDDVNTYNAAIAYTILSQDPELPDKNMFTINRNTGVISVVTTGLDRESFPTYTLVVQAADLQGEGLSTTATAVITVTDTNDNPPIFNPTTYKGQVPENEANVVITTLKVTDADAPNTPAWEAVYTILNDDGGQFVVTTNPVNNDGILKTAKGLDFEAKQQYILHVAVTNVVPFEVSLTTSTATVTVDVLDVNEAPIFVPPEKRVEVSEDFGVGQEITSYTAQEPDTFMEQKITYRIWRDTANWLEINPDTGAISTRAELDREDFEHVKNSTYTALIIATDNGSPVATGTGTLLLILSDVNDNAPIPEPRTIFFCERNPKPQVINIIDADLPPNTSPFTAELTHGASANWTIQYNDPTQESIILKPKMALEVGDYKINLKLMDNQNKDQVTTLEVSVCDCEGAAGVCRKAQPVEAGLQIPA
UniProt P19022: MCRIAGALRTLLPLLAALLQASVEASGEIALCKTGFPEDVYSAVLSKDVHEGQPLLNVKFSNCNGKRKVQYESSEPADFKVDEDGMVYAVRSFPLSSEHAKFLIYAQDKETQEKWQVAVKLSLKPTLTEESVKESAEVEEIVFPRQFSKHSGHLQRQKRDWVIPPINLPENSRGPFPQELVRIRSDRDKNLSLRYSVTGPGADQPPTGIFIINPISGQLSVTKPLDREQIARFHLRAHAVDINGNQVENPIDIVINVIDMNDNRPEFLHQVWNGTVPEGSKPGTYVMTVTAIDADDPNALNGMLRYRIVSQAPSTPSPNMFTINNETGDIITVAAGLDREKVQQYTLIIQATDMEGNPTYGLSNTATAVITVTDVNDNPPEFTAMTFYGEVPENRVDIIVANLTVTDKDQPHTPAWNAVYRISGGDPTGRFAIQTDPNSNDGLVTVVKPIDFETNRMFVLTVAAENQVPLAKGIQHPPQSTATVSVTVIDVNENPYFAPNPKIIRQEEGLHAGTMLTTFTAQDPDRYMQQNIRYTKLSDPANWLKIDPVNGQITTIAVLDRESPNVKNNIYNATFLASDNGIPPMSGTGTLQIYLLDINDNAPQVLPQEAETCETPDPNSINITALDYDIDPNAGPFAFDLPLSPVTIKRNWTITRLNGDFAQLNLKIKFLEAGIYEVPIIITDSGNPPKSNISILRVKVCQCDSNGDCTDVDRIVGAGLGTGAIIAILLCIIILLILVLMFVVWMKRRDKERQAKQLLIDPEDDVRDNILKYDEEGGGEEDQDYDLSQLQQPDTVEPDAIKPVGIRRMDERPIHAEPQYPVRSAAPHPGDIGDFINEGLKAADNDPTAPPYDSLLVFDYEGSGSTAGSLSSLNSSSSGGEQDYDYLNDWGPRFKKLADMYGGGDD

Target: Fc-tagged extracellular domain of E-cadherin (E-cad-Fc) (UniProt P12830)
Experiment: capillary shear flow cell adhesion assay; cadherin-Fc (50 µg/ml) physisorbed on the inner walls of glass capillaries, blocked with BSA; A431-D^E-cad or A431-D^N-cad cells bound 20 min under static conditions, room temperature, low-serum medium with 2 mM Ca2+, then flow increased every 30 s; WSS50 from fits to Eqn 1; only the target …

In the case of “full-length wild-type human N-cadherin on A431-D cells (A431-D^N-cad; A431-D^N-cad+FGFR) (from UniProt P19022) (receptor)”, the binding is reported as “binds”.
